No constants are given. Whether binding was seen depends on the method and setting. In cells and extracts the contact can be indirect. Some binding calls cover weakened binding; strength is not graded here.
Tests used:
[1] = target: T1, in vitro translated 35S-methionine labeled mDia2 GBD (amino acids 101-216) (mouse) (UniProt Q9Z207); test: GST pull-down of 35S-labeled in vitro translated protein, autoradiography
T1 sequence (chain, 35S-methionine labeled): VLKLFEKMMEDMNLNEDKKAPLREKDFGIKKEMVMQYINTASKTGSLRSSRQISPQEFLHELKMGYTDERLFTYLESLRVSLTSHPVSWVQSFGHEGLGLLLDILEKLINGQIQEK

[2] = target: in vitro translated 35S-methionine labeled mDia2 (mouse) (UniProt Q9Z207); test: as above
[3] = target: T1, in vitro translated 35S-methionine labeled mDia2 GBD (amino acids 101-216) (mouse); test: GST pull-down of 35S-labeled in vitro translated protein
[4] = target: in vitro translated 35S-methionine labeled mDia2 (mouse) (UniProt Q9Z207); test: as above

binding [1]: binds | binding [2]: binds | binding [3]: binds | binding [4]: binds
Substance: GST-DAD (glutathione-S-transferase fused to mDia2 DAD, amino acids 1031-1171) (from UniProt Q9Z207 1031-1171)

— patent US20040072301A1
